{"source": "patent US20240150457A1", "binders": {"B1": {"name": "P24E1102 (antibody, human IgG4 S228P, kappa, V domains shown)", "VH": "QVQLVQSGAEVKKPGSSVKVSCKASGFSLSSYAISWVRQAPGQGLEWMGVIWGNQNVYYAQKFQGRVTITADESTSTAYMELSSLRSEDTAVYYCARWKGYKDYPFDYWGQGTLVTVSS", "VL": "EIVLTQSPATLSLSPGERATLSCRASQNVYKWLDWYQQKPGQAPRLLIYNANTRATGIPARFSGSGSGRDFTLTISSLEPEDFAVYYCQQHHSGWTFGGGTKVEIKR"}}, "target": "Recombinant cynomolgus monkey PAR-2 (cynomolgus monkey)", "assay": "SPR", "note": "These are yes or no findings as the source states them, for the method shown. Binding calls can cover weak binding; strength is not graded here.", "data": [{"binder": "B1", "values": [{"measurement": "binding", "result": "binds"}]}]}
